Measured values reported in paper PMC3223157.
Results are given in words; binding and its absence hold for the method and conditions named. In cells and extracts the contact can be indirect. Binding calls can cover weak binding; strength is not graded here.

The chains behind the UniProt entries cited, without tags or fusion partners. Where a name states a change or a piece, a line headed by the entry shows the natural chain unless it says otherwise.
UniProt Q14790: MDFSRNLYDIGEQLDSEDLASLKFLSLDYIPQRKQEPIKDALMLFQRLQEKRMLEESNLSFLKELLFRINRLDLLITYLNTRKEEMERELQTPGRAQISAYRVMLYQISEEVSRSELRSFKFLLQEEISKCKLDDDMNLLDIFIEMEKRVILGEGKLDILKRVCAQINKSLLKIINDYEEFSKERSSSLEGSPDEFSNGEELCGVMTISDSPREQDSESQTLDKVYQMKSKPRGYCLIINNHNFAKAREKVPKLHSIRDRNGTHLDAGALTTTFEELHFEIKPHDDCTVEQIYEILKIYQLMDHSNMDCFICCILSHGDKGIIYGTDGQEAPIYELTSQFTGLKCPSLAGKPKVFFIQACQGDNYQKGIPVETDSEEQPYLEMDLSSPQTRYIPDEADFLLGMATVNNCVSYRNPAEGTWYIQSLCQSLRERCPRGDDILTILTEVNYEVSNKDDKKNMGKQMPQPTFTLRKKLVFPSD
UniProt P55211: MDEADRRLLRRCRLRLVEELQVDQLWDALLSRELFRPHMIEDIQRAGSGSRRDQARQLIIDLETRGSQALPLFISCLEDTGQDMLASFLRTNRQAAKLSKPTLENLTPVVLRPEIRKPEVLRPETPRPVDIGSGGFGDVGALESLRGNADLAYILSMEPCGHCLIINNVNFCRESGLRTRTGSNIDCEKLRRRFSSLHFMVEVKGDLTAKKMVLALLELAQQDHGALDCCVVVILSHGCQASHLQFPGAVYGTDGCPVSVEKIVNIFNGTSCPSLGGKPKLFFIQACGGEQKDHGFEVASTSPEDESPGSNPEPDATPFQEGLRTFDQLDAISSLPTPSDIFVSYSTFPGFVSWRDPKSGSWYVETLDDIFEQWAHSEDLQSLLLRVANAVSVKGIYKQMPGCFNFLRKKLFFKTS

Target: caspase 8 (A549 cells) (human (endogenous in A549)) (UniProt Q14790)
Assay: co-IP; cytosolic extract of A549 cells incubated with PBS, AdGFP or AdHSP for 24 h, then 20 ng/ml TNFalpha for 30 min; rabbit polyclonal anti-caspase 8 (1:200); immunoblot

binding: binds
Substance: caspase 9 (A549 cells) (from UniProt P55211) (enzyme)
